This test is described as follows: qHTS Assay for Lipid Storage Modulators in Drosophila S3 Cells.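 On cell number change: cells counted by Cell Tracker Red CMTPX staining in the red channel.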 Particulars: BODIPY lipid droplet fluorescence, 18-24 h; for cell number change: measured here: cell count max response, cells fed with added oleic acid. The procedure, abridged:
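Drosophila S3 cells got compounds at several concentrations plus oleic acid (400 uM solution). Laser-scanning cytometry with 488 nm excitation read lipid droplets at 500-530 nm and cells at 575-640 nm. Percent activity was relative to 20 uM Triacsin C.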

Setting [1] is: measured here: cell number channel AC50, cells fed with added oleic acid.
[2] abbreviates: measured here: lipid fluorescence (Fed channel) AC50, cells fed with added oleic acid.

The other results are listed elsewhere or left out. Shown are side measurements of this screen, not its main read-out; they come without a call. Most of these compounds were active or inconclusive in the main read-out, so they are no random draw. Words in brackets tell the shape of the fitted curve; partial curves, single points and poor fits give uncertain potencies.

For orientation: AC50 means the concentration giving half of the maximal activity seen.

Consider `COCCN(C(=O)CSc1nncn1-c1ccccc1)c1c(N)n(Cc2ccccc2)c(=O)[nH]c1=O`, for which the cell number change is -44.2%. Also, the AC50 under setting [1] was 0.461 µM [falling, full curve]. Besides, under setting [2], the AC50 was 29.1 µM [falling, partial curve, poor fit]. For the molecule `CC1=C(C(=O)OC(C)C)C(c2ccccc2Cl)CC(=O)N1` (stereo not drawn), the cell number change was -36.6%. Also, the AC50 under setting [1] was 8.2 µM [falling, partial curve]. Also, the AC50 under setting [2] is 25.9 µM [falling, partial curve, poor fit]. Turning to `c1ccc(OCCOc2ccccc2-c2nnco2)cc1`, the cell number change is -8.01%. Moreover, the AC50 under setting [2] is 0.326 µM [rising, partial curve, poor fit]. `O=C(O)c1cc(Sc2ccc(Br)cc2)nc2ccccc12`: the cell number change amounted to 50.8%. The AC50 under setting [1] is 6.51 µM [rising, full curve, poor fit]. For the same molecule, under setting [2], the AC50 was 6.51 µM [rising, full curve]. On to `COc1cc(CC(=O)Nc2ccc(Cl)c(C(F)(F)F)c2)cc(OC)c1OC`, for which the cell number change was found to be 28.3%. Under setting [2], the AC50 was 7.31 µM [rising, partial curve].

Regarding `CCNC(=O)CC1C(=O)N(c2ccc(C)cc2)C(=O)N1CCC(C)C` (stereo not drawn), the cell number change is -8.11%. The AC50 under setting [2] is 6.51 µM [falling, partial curve]. As for `CC(C)(C)N(NC(=O)c1ccccc1)C(=O)c1ccc(C(=O)N(NC(=O)c2ccccc2)C(C)(C)C)cc1`, the cell number change was -13.9%. Besides, the AC50 under setting [2] is 0.58 µM [falling, partial curve, poor fit]. With `CCc1cc(C(=O)NNC(=S)NC2CCCCC2)cs1`, the half-maximal activity concentration (AC50) under setting [2] is 0.58 µM [rising, single point]. Take `COc1ccc(CNc2ccc3c(c2)nc(C)n3C)cc1OC`: the cell number change was -0.276%. Also, the AC50 under setting [2] was 2.31 µM [falling, partial curve].

Regarding `CCOc1ccc2nc(NC(=O)c3ccc(OC)c(S(=O)(=O)N4CCOCC4)c3)sc2c1`, the cell number change is -70.4%. The AC50 under setting [1] was 23.1 µM [falling, single point]. Regarding `CNC(=O)c1ccc(CN(C)CC(=O)Nc2ccccc2C(=O)NC2CC2)cc1`, the cell number change is -6.07%. The AC50 under setting [1] is 0.00731 µM [falling, full curve, poor fit]. Moreover, the concentration at half-maximal activity (AC50) under setting [2] was 0.00517 µM [falling, full curve, poor fit].

`O=C(CCCN1C(=O)/C(=C/c2cccs2)SC1=S)Nc1ccc(O)c(C(=O)O)c1`: the cell number change was 2.97%. Moreover, the AC50 under setting [2] is 32.6 µM [rising, single point]. Regarding `O=C(O)c1ccccc1SCc1nc2ccccn2c1Br`, the cell number change worked out at 14%. Besides, the AC50 under setting [1] is 2.59 µM [falling, partial curve]. Further, the AC50 under setting [2] was 6.51 µM [falling, single point]. Turning to `CCCc1nnc(NC(=O)CN2C(=O)c3ccccc3S2(=O)=O)s1`, the cell number change is -70.1%. Further, under setting [1], the AC50 was 2.91 µM [falling, full curve].

For `COc1ccc(CCN(C)C(=O)CSc2nccn2C)cc1OC`, the AC50 under setting [2] is 0.184 µM [rising, full curve].

In the case of `Cc1ccc(NC(=S)N(CCCN2CCOCC2)Cc2cccnc2)cc1C`, the cell number change came to 10.9%. Moreover, the AC50 under setting [1] is 6.51 µM [rising, single point]. On to `CCOc1ccc(CCNC(=O)c2c(C)nn(-c3ccccc3)c2Cl)cc1OCC`, for which the cell number change was determined as 17.6%. In addition, the AC50 under setting [1] was 1.3 µM [rising, partial curve, poor fit]. For the same molecule, the AC50 under setting [2] is 2.31 µM [rising, partial curve, poor fit]. Regarding `COc1ccc(-c2csc(N(CCc3ccccc3)C(=O)COc3ccccc3)n2)cc1`, the cell number change was -36%. Besides, the AC50 under setting [1] was 0.58 µM [falling, full curve, poor fit]. Also, under setting [2], the concentration at half-maximal activity (AC50) was 25.9 µM [falling, partial curve, poor fit].

On to `Cc1ccccc1C(=O)N1CCC(C(=O)NC2CCCCCC2)CC1`, for which the cell number change is -5.13%. On to `COc1ccc(CC(=O)N2CCN=C2SCc2cccc([N+](=O)[O-])c2)cc1`, for which the cell number change worked out at 10.1%.

As to `CCc1cccc2[nH]c3cc([N+](=O)[O-])ccc3c12`, the cell number change is -31.9%. Moreover, under setting [1], the AC50 was 10.3 µM [falling, single point]. Consider `C=C(C)CNC(=S)N/N=C/c1ccc([N+](=O)[O-])cc1`, for which the cell number change turned out to be 38.5%. Further, under setting [1], the AC50 was 9.2 µM [rising, partial curve, poor fit]. Further, the AC50 under setting [2] is 32.6 µM [rising, partial curve, poor fit]. Regarding `COc1ccc(CC(NC(C)=O)C(=O)NC2CCN(C(=O)C3CC3)CC2)cc1OC` (stereo not drawn), the cell number change stood at 7.48%. Moreover, the AC50 under setting [2] is 0.146 µM [falling, full curve, poor fit].

`COc1ccc(C(=O)N/C(=C\c2ccco2)C(=O)NCc2cccnc2)cc1`: the cell number change was found to be 9.01%. Also, the AC50 under setting [2] was 4.61 µM [falling, single point].

Consider `O=C(Cc1ccccc1)Nc1nnc(SCC(=O)NC2CCCC2)s1`, for which the cell number change was -64.6%. Further, the concentration at half-maximal activity (AC50) under setting [1] was 4.61 µM [falling, full curve]. The AC50 under setting [2] is 0.461 µM [falling, full curve]. `Cc1nc(SCC(=O)NCc2ccco2)c2c(C)c(C)sc2n1`: the AC50 runs as follows: under setting [1], 0.651 µM [rising, full curve, poor fit]; under setting [2], 2.06 µM [rising, partial curve]. With `Cc1ccc(S(=O)(=O)N2CCC(C(=O)NCC3CCCO3)CC2)cc1` (stereo not drawn), the AC50 under setting [2] is 29.1 µM [falling, single point].

As for `FC(F)Oc1ccc(NC(=S)NC23CC4CC(CC(C4)C2)C3)cc1`, the cell number change is -2.56%. The AC50 under setting [2] is 29.1 µM [falling, single point].

For the molecule `CCOc1ccc(/C(CC)=N/NC(=O)C2(C)CC2(Br)Br)cc1` (stereo not drawn), the AC50 under setting [2] was 0.731 µM [rising, partial curve]. As to `Cc1cc(C)cc(NC(=O)Cn2nnc(C(=O)NCc3cccs3)c2N)c1`, the cell number change was -7.96%. Further, under setting [2], the AC50 is 3.26 µM [rising, full curve].

On to `Cc1cc(C2=NNC(=NCc3ccccc3)SC2)c(C)n1-c1c(C)n(C)n(-c2ccccc2)c1=O`, for which the cell number change is 6.28%. Further, the AC50 under setting [2] was 0.0651 µM [rising, full curve, poor fit]. `Cc1cccc(OCc2nnc(SCC(=O)c3cccs3)n2C)c1C`: the cell number change came out at 70.4%. Also, the AC50 under setting [1] is 29.1 µM [rising, single point]. The AC50 under setting [2] was 13 µM [rising, partial curve].

Consider `CCOC(=O)/C(=C/C=C1\Sc2cc(OCC)c(OCC)cc2N1CC)C(C)=O`, for which the cell number change is -90.4%. In the case of `O=C(NNC(=S)NCc1ccco1)c1ccccc1Br`, the cell number change was -0.0802%. Regarding `CCOC(=O)C1=C(N)N(c2ccc(N3CCCCC3)cc2)C(=O)C1`, the cell number change is -0.595%.

Regarding `Cc1noc(C)c1COc1cccc(C(=O)NCCc2c[nH]c3ccccc23)c1`, the cell number change is -29.9%. The AC50 under setting [2] was 29.1 µM [falling, single point]. For the molecule `O=C(Nc1ccc(F)c(Cl)c1)c1cc(-c2ccco2)on1`, the cell number change came to 9.58%. Take `Cc1ccc(NC(=S)NCCCN2CCOCC2)cc1`: the cell number change is 52.3%. In addition, under setting [1], the AC50 was 20.6 µM [rising, partial curve]. For `Sc1nnc(-c2ccc(Cl)cc2)n1Cc1ccccc1`, the cell number change is 46.2%. For the same molecule, the half-maximal activity concentration (AC50) under setting [1] is 23.1 µM [rising, partial curve, poor fit]. Further, under setting [2], the concentration at half-maximal activity (AC50) is 18.4 µM [rising, partial curve, poor fit]. For the molecule `COCC(=O)OCC(=O)N1N=C(c2ccc(Cl)cc2)CC1c1ccco1` (stereo not drawn), the cell number change was -13.3%. Further, the AC50 under setting [2] was 4.11 µM [falling, partial curve, poor fit]. On to `COc1ccc(Cl)cc1CNCCCSc1ncccn1`, for which the cell number change is -2.46%. In addition, under setting [1], the half-maximal activity concentration (AC50) was 0.517 µM [rising, single point]. With `Cc1c(O)ccc(/C=N/Nc2ncccc2[N+](=O)[O-])c1O`, the cell number change is 18.6%. For the molecule `Cc1ccccc1N=C1c2ccccc2C(=O)C1[N+](=O)[O-]` (stereo not drawn), the cell number change is -1.44%.

As for `C=CCNC(=O)C(=O)NCC1CCCN1S(=O)(=O)c1cccs1` (stereo not drawn), the cell number change worked out at 17.7%.

For the molecule `O=C(NCC1CCCO1)c1cc2ccccc2nc1Cl` (stereo not drawn), the cell number change was -19.3%. For `C/C(=N\NC(=O)c1cccc(S(=O)(=O)N2CCOCC2)c1)c1ccc(C#N)cc1`, the cell number change was -30.7%. The AC50 under setting [1] was 29.1 µM [falling, single point]. Under setting [2], the AC50 is 0.58 µM [falling, single point].

`O=C1CC[C@H](N2C(=O)c3ccccc3C2=O)C(=O)N1`: the AC50 under setting [2] is 0.411 µM [falling, single point]. For the molecule `Cc1oc2cc3oc(=O)c(CCC(=O)NCCCn4ccnc4)c(C)c3cc2c1C`, the cell number change worked out at 9.39%. For the same molecule, the AC50 under setting [2] was 0.0651 µM [rising, full curve, poor fit].

On to `Cc1ccc(OCC(=O)NC2CCS(=O)(=O)C2)c([N+](=O)[O-])n1` (stereo not drawn), for which the cell number change was -18.5%. Besides, the AC50 under setting [1] was 0.184 µM [falling, full curve, poor fit]. Turning to `Cc1cc2ccccc2c(=O)n1CC(=O)NCC(=O)N1CCCC(C)C1` (stereo not drawn), the cell number change was -31.5%. Under setting [1], the AC50 is 0.103 µM [falling, full curve, poor fit]. For the same molecule, the concentration at half-maximal activity (AC50) under setting [2] is 0.13 µM [falling, full curve, poor fit].

As for `O=c1[nH]c(CSc2ncnc3sccc23)nc2ccccc12`, the cell number change was 9.84%. The AC50 under setting [2] is 1.64 µM [rising, full curve, poor fit]. `CCCC(C(=O)NCc1ccco1)N(CC1CCCO1)C(=O)CNS(=O)(=O)c1ccc(F)cc1` (stereo not drawn): the cell number change amounted to 9.24%. Also, the AC50 under setting [1] is 0.00411 µM [rising, full curve, poor fit]. On to `CN(Cc1cccc(-n2cccn2)c1)Cc1cn(C)nc1-c1ccccc1F`, for which the cell number change stood at 24.9%. In the case of `Cc1cc2cccc(C)c2nc1SCC(=O)NC1CCCCC1`, the cell number change was 11.5%. Also, the AC50 under setting [2] is 29.1 µM [falling, single point]. As to `COc1ccc(N2CCN(C(c3cccs3)c3nnnn3C3CCCC3)CC2)cc1` (stereo not drawn), the cell number change came out at 1.17%.

Regarding `COC(=O)c1sccc1NC(=O)c1ccco1`, the AC50 under setting [2] was 5.8 µM [rising, partial curve]. In the case of `Cc1ccc(C(=O)NC2CCCC(C)C2C)cc1S(=O)(=O)N1CCCCC1` (stereo not drawn), under setting [1], the AC50 is 0.13 µM [falling, full curve, poor fit]. On to `O=C(Nc1ccccc1Cl)C1C2CCC3C(CCC21)C3(Cl)Cl` (stereo not drawn), for which the cell number change stood at 26.9%. Further, under setting [1], the AC50 is 3.66 µM [rising, partial curve, poor fit]. For the same molecule, under setting [2], the AC50 was 9.2 µM [rising, partial curve]. As to `CCCC[C@@H]1CNC(=S)N1CCc1cccc2ccccc12`, the cell number change is 13.9%. The AC50 under setting [2] is 29.1 µM [rising, single point].

Values taken from PubChem BioAssay AID2685 (National Center for Advancing Translational Sciences (NCATS), 2010).
